Test results from PMC6155051, “Structures of insect Imp-L2 suggest an alternative strategy for regulating the bioavailability of insulin-like hormones” (Nature Communications, 2018).
These are yes or no findings as the source states them, for the method shown.

Assays:
[1] = target: Drosophila imaginal morphogenesis protein-late 2 protein (Imp-L2) (Drosophila melanogaster) (UniProt Q09024); assay: SEC-MALS; Imp-L2 with insulin X14 added; 150 mM NaCl, 50 mM Tris pH 7.4; Superdex S200 10/300, room temperature; both purified
[2] = target: Drosophila imaginal morphogenesis protein-late 2 protein (Imp-L2) (Drosophila melanogaster) (UniProt Q09024); assay: SEC-MALS; Imp-L2 with IGF-1 added; 150 mM NaCl, 50 mM Tris pH 7.4; Superdex S200 10/300, room temperature; both purified
[3] = target: Drosophila imaginal morphogenesis protein-late 2 protein (Imp-L2) (Drosophila melanogaster) (UniProt Q09024); assay: SEC-MALS; Imp-L2 with DILP5 added; 150 mM NaCl, 50 mM Tris pH 7.4; Superdex S200 10/300, room temperature; both purified
[4] = target: Drosophila imaginal morphogenesis protein-late 2 protein (Imp-L2) (Drosophila melanogaster) (UniProt Q09024); assay: SEC-MALS; ligand-free Imp-L2, 1 mg/mL, 50 mM Tris pH 7.4, 300 mM NaCl; Superdex S200 10/300; both purified

B1: Drosophila imaginal morphogenesis protein-late 2 protein (Imp-L2) (natural protein, Drosophila melanogaster, UniProt Q09024 26-267, looked up)
chain: RAVDLVDDSNDVDNSIEAEEEKPRNRAFEADWLKFTKTPPTKLQQADGATIEIVCEMMGSQVPSIQWVVGHLPRSELDDLDSNQVAEEAPSAIVRVRSSHIIDHVLSEARTYTCVGRTGSKTIYASTVVHPPRSSRLTPEKTYPGAQKPRIIYTEKTHLDLMGSNIQLPCRVHARPRAEITWLNNENKEIVQGHRHRVLANGDLLISEIKWEDMGNYKCIARNVVGKDTADTFVYPVLNEED
notes: signal peptide in the construct: full-length Drosophila Imp-L2 with the native signal peptide, secreted into the medium; After 3C cleavage, residues of the protease site should remain at the C-terminus (surmised); A selenomethionine-labelled form was also made; the apo structure was solved by MAD; also called Dm Imp-L2; apo-Imp-L2; source: baculovirus-infected Sf9 cells, purified from conditioned …
- binding [1]: no binding (condition: with insulin X14 added)
- binding [2]: no binding (condition: with IGF-1 added)
- binding [3]: no binding (condition: with DILP5 added)
- binding [4]: no binding (condition: at 300 mM NaCl)
